The other results are listed elsewhere or left out.
Legend:
Assay in all cases: log2 fold change, soluble protein after heating vs DMSO (PISA); higher = thermal stabilisation; K562 cells, 10 uM, 30 min; active = over 0.2 and 3.5 SD of the protein, either way, in both replicates (recomputed)
[1] = compound: COC1=CC=C(C=C1)CN2C=CC3=C2C=C(C=C3)C(=O)NO
Summary of the method: (§1)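 Aliquots of K562 cells (2×10^6 cells/mL) treated with 10 μM compound for 30 min were heated for 3 min over 48°C-58°C. After pooling and extraction in PBS with 0.5% NP-40 at 4°C, soluble protein from a 21,000xg, 90 min spin was quantified by TMTpro 16plex LC-MS/MS with channel sums equalised. Thermal stability is expressed against control samples, from duplicates, as a log2 fold change.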

By UniProt entry, the sequences of proteins in these tests, tags left out. Where a name states a change or a piece, a line headed by the entry shows the natural chain unless it says otherwise.
UniProt P02100: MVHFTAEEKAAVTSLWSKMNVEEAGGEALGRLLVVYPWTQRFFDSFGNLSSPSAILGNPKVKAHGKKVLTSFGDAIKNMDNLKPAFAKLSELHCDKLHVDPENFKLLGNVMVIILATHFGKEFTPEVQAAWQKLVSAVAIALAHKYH
UniProt P02724: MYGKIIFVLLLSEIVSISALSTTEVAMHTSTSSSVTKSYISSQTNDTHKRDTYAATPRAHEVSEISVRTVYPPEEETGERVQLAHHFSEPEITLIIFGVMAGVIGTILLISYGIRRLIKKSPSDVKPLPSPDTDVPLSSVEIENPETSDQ
UniProt P0C0S5, whole entry, looked up: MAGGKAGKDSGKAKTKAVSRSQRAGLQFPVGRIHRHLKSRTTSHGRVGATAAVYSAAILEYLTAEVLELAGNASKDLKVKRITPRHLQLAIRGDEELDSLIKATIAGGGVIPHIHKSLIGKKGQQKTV
UniProt Q9Y5Q8: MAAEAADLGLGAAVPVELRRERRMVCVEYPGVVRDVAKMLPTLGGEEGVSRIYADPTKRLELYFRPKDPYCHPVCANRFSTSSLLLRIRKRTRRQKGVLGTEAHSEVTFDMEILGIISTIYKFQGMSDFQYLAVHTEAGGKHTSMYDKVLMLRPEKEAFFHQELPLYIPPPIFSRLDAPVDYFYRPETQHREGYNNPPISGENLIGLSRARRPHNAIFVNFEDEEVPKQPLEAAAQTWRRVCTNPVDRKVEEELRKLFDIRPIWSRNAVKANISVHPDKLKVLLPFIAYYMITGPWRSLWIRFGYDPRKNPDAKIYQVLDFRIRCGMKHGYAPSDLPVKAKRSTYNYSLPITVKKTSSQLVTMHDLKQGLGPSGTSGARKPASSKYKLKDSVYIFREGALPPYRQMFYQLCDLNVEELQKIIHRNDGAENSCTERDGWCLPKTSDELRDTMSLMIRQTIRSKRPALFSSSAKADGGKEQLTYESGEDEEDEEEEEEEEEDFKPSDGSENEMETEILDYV
UniProt P13984, whole entry, looked up: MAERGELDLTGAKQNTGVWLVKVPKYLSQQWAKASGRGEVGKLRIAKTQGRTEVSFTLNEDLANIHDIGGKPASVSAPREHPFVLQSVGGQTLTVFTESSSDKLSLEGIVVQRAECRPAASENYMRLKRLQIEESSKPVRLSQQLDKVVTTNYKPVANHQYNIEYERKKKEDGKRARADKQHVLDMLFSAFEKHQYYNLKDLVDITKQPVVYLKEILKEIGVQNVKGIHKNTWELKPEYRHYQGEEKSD
UniProt P46439: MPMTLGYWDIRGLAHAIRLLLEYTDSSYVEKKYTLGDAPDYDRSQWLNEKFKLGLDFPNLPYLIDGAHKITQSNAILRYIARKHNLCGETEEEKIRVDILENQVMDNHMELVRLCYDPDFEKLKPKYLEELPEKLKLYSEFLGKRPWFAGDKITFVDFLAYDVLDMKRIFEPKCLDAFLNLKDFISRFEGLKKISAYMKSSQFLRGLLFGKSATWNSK
UniProt Q92522: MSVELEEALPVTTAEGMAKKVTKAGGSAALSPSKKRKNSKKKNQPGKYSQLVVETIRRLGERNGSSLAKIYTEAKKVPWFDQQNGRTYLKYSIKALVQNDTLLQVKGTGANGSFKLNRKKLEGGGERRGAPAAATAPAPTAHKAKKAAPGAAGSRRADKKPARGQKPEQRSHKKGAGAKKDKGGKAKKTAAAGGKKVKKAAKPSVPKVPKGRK
UniProt Q9BSE4: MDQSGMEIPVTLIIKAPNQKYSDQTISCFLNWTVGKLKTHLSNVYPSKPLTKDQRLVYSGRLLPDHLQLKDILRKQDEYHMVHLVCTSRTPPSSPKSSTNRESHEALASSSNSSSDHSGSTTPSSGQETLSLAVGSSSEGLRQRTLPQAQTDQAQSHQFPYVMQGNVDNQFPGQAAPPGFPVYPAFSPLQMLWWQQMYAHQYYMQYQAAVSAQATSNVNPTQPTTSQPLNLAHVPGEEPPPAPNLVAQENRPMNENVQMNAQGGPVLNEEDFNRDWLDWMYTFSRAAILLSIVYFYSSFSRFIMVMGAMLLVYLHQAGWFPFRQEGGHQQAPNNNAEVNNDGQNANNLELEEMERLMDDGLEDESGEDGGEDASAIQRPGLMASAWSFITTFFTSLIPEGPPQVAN
UniProt P55084: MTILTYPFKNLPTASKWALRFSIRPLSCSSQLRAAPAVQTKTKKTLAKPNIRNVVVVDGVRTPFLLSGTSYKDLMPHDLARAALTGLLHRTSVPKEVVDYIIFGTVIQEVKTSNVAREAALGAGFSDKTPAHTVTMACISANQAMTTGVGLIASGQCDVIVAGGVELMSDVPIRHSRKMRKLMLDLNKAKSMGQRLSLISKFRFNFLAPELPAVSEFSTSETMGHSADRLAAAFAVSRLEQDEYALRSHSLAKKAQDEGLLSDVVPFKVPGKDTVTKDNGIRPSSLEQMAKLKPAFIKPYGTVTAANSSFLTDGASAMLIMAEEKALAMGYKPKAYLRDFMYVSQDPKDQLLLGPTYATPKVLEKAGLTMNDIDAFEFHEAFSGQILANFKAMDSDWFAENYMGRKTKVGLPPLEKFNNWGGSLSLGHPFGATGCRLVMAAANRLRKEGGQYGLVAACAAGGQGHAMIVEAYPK
UniProt Q9P0R6: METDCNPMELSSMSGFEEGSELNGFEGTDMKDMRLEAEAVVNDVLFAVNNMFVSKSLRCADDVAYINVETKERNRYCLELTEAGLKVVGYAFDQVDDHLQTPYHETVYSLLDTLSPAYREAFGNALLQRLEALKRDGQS
UniProt P46976: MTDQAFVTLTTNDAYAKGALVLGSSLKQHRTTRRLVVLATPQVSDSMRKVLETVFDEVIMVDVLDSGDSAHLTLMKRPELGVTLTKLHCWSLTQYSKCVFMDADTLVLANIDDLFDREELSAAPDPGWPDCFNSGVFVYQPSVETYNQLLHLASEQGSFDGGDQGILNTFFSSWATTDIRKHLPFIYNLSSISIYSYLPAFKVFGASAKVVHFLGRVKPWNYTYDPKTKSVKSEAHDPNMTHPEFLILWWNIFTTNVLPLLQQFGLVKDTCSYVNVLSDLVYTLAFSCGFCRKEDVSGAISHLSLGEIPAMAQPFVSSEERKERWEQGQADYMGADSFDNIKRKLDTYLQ
UniProt Q9H0R4: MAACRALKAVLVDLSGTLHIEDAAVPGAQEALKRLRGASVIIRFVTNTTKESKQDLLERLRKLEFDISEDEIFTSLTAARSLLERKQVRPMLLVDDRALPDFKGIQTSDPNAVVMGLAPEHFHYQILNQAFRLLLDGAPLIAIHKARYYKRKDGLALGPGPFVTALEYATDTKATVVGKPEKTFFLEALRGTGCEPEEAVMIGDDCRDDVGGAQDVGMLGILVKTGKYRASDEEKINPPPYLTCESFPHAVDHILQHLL
UniProt P51610: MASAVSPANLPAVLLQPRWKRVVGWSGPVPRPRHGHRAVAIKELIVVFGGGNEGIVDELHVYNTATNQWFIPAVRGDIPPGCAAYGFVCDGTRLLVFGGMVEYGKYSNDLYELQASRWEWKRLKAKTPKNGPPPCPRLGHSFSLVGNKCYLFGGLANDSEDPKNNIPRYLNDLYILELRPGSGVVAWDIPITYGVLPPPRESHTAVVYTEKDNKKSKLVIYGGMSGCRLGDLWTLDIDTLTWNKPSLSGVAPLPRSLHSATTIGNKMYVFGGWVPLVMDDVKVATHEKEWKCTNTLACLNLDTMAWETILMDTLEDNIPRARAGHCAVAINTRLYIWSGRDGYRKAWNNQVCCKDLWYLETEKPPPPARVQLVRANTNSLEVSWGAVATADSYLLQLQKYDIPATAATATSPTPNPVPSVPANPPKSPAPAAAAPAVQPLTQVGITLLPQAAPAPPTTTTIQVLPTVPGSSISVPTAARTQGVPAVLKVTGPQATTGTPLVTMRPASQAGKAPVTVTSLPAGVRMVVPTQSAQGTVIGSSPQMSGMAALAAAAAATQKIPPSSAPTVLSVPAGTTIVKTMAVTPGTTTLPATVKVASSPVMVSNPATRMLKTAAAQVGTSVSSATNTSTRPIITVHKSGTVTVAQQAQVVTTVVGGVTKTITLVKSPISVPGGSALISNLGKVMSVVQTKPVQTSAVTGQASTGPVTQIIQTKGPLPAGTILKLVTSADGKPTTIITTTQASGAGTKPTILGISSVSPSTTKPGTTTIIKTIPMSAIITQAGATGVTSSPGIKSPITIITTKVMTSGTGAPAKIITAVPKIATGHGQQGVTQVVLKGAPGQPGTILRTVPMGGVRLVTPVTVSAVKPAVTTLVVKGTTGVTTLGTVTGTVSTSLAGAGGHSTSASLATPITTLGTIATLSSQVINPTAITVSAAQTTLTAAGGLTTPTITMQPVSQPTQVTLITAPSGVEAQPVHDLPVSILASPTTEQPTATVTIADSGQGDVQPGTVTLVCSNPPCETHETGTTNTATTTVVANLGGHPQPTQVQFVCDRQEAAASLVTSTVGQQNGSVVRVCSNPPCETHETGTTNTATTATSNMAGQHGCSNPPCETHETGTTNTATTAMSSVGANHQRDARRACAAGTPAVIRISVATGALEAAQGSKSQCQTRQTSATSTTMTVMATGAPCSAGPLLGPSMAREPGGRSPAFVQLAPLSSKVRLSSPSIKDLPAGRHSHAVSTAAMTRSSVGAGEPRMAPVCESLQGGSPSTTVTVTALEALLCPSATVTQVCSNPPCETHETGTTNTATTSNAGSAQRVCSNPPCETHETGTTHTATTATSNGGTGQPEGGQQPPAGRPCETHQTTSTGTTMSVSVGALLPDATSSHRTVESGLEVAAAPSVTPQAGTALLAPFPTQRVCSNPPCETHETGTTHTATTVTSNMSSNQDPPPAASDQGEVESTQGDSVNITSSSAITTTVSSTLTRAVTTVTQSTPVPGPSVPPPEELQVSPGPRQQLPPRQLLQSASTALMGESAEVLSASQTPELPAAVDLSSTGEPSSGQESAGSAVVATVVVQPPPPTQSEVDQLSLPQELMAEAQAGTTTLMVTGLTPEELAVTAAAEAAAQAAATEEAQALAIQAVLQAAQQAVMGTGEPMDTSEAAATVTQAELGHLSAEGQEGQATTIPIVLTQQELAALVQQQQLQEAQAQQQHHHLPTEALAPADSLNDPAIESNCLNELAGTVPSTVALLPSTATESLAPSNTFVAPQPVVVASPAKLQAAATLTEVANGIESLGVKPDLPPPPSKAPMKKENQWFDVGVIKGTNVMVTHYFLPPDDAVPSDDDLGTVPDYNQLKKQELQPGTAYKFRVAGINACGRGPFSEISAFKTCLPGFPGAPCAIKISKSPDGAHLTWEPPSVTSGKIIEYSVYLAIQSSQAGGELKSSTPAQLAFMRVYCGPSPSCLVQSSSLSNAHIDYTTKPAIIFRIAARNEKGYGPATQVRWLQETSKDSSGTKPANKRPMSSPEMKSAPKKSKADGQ
UniProt P49841: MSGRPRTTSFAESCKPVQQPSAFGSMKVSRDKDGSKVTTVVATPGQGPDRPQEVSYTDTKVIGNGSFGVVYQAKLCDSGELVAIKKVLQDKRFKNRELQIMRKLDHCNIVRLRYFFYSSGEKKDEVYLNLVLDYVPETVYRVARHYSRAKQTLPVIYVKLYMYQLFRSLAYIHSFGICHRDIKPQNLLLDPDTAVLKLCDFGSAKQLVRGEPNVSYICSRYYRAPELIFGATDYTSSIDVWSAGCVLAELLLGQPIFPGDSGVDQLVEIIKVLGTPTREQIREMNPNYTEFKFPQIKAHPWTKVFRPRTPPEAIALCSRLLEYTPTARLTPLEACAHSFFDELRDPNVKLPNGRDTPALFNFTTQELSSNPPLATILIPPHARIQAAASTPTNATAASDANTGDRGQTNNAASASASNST
UniProt O75367, whole entry, looked up: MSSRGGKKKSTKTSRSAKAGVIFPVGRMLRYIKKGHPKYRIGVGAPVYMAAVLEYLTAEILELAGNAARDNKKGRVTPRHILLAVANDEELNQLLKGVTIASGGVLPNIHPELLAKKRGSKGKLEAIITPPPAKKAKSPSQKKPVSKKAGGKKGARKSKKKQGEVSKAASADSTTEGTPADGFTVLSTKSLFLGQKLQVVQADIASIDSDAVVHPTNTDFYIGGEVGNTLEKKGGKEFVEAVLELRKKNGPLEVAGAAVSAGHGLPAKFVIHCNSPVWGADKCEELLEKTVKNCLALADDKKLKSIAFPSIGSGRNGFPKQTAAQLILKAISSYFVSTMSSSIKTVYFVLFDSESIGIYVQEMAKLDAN
UniProt Q13547, whole entry, looked up: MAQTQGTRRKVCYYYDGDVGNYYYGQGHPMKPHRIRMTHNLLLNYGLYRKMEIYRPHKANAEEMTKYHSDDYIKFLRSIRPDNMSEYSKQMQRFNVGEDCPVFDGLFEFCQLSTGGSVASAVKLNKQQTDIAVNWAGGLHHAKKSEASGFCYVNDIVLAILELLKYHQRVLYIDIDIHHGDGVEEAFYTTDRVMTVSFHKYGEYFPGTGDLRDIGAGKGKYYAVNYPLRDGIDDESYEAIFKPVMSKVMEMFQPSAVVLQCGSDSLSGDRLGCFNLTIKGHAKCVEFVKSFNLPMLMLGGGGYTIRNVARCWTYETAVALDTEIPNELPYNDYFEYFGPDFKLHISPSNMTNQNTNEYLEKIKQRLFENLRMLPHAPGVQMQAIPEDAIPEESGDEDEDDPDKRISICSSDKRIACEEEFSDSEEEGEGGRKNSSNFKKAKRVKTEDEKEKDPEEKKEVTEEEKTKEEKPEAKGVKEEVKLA

filanesib = compound: CON(C)C(=O)N1N=C(c2cc(F)ccc2F)S[C@@]1(CCCN)c1ccccc1 [filanesib]
Summary of the method: as §1

zotarolimus = compound: CO[C@H]1C[C@@H]2CC[C@@H](C)[C@@](O)(O2)C(=O)C(=O)N2CCCC[C@H]2C(=O)O[C@H]([C@H](C)C[C@@H]2CC[C@H](n3cnnn3)[C@H](OC)C2)CC(=O)[C@H](C)/C=C(\C)[C@@H](O)[C@@H](OC)C(=O)[C@H](C)C[C@H](C)/C=C/C=C/C=C/1C [zotarolimus]
Summary of the method: as §1

alisertib = compound: COc1cc(Nc2ncc3c(n2)-c2ccc(Cl)cc2C(c2c(F)cccc2OC)=NC3)ccc1C(=O)O [alisertib]
Summary of the method: as §1

[2] = compound: COc1cc2nc(-c3cc(F)ccc3O)nc(N[C@@H]3CNC[C@H]3C(C)(C)O)c2cc1OC
Summary of the method: as §1

gefitinib = compound: COc1cc2ncnc(Nc3ccc(F)c(Cl)c3)c2cc1OCCCN1CCOCC1 [gefitinib]
Summary of the method: as §1

[3] = compound: COc1cccc2cc(-c3nc([C@H]4CC[C@H](C(=O)O)CC4)n4ncnc(N)c34)[nH]c12
Summary of the method: as §1

lapatinib = compound: CS(=O)(=O)CCNCc1ccc(-c2ccc3ncnc(Nc4ccc(OCc5cccc(F)c5)c(Cl)c4)c3c2)o1 [lapatinib]
Summary of the method: as §1

pictilisib = compound: CS(=O)(=O)N1CCN(Cc2cc3nc(-c4cccc5[nH]ncc45)nc(N4CCOCC4)c3s2)CC1 [pictilisib]
Summary of the method: as §1

idasanutlin = compound: COc1cc(C(=O)O)ccc1NC(=O)[C@@H]1N[C@@H](CC(C)(C)C)[C@](C#N)(c2ccc(Cl)cc2F)[C@H]1c1cccc(Cl)c1F [idasanutlin]
Summary of the method: as §1

Row | Target | log2 fold change [1] | log2 fold change (filanesib) | log2 fold change (zotarolimus) | log2 fold change (alisertib) | log2 fold change [2] | log2 fold change (gefitinib) | log2 fold change [3] | log2 fold change (lapatinib) | log2 fold change (pictilisib) | log2 fold change (idasanutlin)
1 | GTF3C6 (UniProt Q969F1) | inactive: -0.095 | inactive: 0.034 | inactive: 0.162 | inactive: -0.249 | inactive: 0.03 | inactive: -0.102 | inactive: -0.032 | inactive: 0.043 | inactive: 0.017 | –
2 | GTF3C4 (UniProt Q9UKN8) | inactive: -0.038 | inactive: 0.034 | inactive: 0.019 | inactive: -0.032 | inactive: 0.007 | inactive: 0.058 | inactive: -0.011 | inactive: 0.029 | inactive: 0.028 | inactive: -0.003
3 | HBE1 (UniProt P02100) | inactive: 0.035 | inactive: -0.007 | inactive: 0.056 | inactive: -0.077 | inactive: -0.09 | inactive: -0.013 | inactive: 0.098 | inactive: -0.04 | inactive: 0.127 | inactive: -0.032
4 | HEATR3 (UniProt Q7Z4Q2) | inactive: 0.027 | inactive: 0.007 | inactive: -0.004 | inactive: 0.099 | inactive: -0.083 | inactive: 0.072 | inactive: 0.046 | inactive: 0.004 | inactive: -0.134 | –
5 | GUF1 (UniProt Q8N442) | inactive: -0.02 | inactive: 0.02 | – | inactive: 0.065 | inactive: 0.28 | inactive: 0.064 | inactive: 0.146 | inactive: -0.083 | inactive: 0.109 | inactive: -0.308
6 | GTF2H3 (UniProt Q13889) | inactive: -0.031 | inactive: 0.062 | inactive: -0.04 | inactive: -0.155 | inactive: 0.016 | inactive: 0 | inactive: 0.041 | inactive: 0.056 | inactive: -0.089 | inactive: -0.077
7 | GYPA (UniProt P02724) | inactive: 0.072 | inactive: 0.002 | inactive: -0.016 | inactive: -0.11 | inactive: 0.019 | inactive: 0.063 | inactive: -0.053 | inactive: 0.078 | inactive: 0.016 | inactive: 0.14
8 | H2AZ1 (UniProt P0C0S5) | inactive: 0.05 | inactive: 0.353 | inactive: -0.113 | inactive: 0.039 | inactive: -0.046 | inactive: 0.121 | inactive: -0.161 | inactive: 0 | inactive: -0.09 | inactive: 0.266
9 | GTF3C5 isoform 3 (UniProt Q9Y5Q8) | inactive: -0.115 | inactive: -0.039 | inactive: 0.116 | inactive: 0.064 | inactive: 0.024 | inactive: -0.003 | inactive: -0.034 | inactive: 0.13 | inactive: -0.148 | inactive: -0.068
10 | GTF2F2 (UniProt P13984) | inactive: -0.012 | inactive: -0.032 | inactive: 0.019 | inactive: -0.004 | inactive: 0.038 | inactive: 0.031 | inactive: 0.002 | inactive: -0.028 | inactive: 0.027 | inactive: -0.028
11 | GSTM5 (UniProt P46439) | inactive: 0.033 | inactive: -0.209 | inactive: 0.178 | inactive: 0.173 | inactive: 0.049 | inactive: 0.149 | inactive: -0.288 | inactive: 0.017 | inactive: 0.053 | inactive: 0.032
12 | H1FX (UniProt Q92522) | inactive: -0.116 | inactive: 0.112 | inactive: 0.049 | inactive: -0.147 | inactive: 0.033 | inactive: -0.044 | inactive: -0.24 | inactive: 0.133 | inactive: -0.134 | inactive: 0.161
13 | HERPUD2 (UniProt Q9BSE4) | inactive: 0.02 | – | inactive: 0.126 | – | – | – | – | – | – | inactive: 0.006
14 | GTPBP6 (UniProt O43824) | inactive: -0.105 | inactive: 0.049 | inactive: 0.061 | inactive: -0.217 | – | inactive: -0.146 | inactive: 0 | – | inactive: -0.012 | inactive: 0.018
15 | GTSF1 (UniProt Q8WW33) | inactive: 0.022 | inactive: -0.045 | inactive: 0.013 | inactive: -0.053 | inactive: -0.034 | inactive: -0.011 | inactive: 0 | inactive: 0.018 | inactive: 0.017 | inactive: 0.022
16 | HAGHL (UniProt Q6PII5) | inactive: -0.008 | inactive: 0.042 | inactive: -0.001 | inactive: 0.071 | inactive: 0.055 | – | inactive: -0.07 | inactive: -0.01 | – | –

Row | Target | log2 fold change [1] | log2 fold change (filanesib) | log2 fold change (zotarolimus) | log2 fold change (alisertib) | log2 fold change [2] | log2 fold change (gefitinib) | log2 fold change [3] | log2 fold change (lapatinib) | log2 fold change (pictilisib) | log2 fold change (idasanutlin)
17 | HAGHL isoform 2 (UniProt Q6PII5) | inactive: 0.068 | inactive: -0.071 | inactive: 0.009 | inactive: -0.044 | – | inactive: 0.038 | inactive: -0.015 | – | – | inactive: 0.066
18 | HBS1L (UniProt Q9Y450) | inactive: 0.017 | inactive: -0.024 | inactive: -0.034 | inactive: -0.017 | inactive: 0.051 | inactive: -0.006 | inactive: -0.015 | inactive: 0.005 | inactive: 0.017 | inactive: -0.028
19 | H1-2 (UniProt P16403) | inactive: -0.012 | inactive: 0.453 | inactive: 0.01 | inactive: -0.077 | inactive: 0.003 | inactive: -0.048 | inactive: -0.323 | inactive: 0.151 | inactive: -0.101 | inactive: 0.146
20 | HADHB (UniProt P55084) | inactive: 0.248 | inactive: 0.094 | inactive: 0.038 | inactive: -0.026 | inactive: 0.217 | inactive: 0.17 | inactive: -0.085 | inactive: 0.086 | inactive: 0.383 | inactive: -0.263
21 | GSKIP (UniProt Q9P0R6) | inactive: 0.011 | – | inactive: -0.046 | inactive: 0.274 | inactive: -0.039 | inactive: -0.001 | inactive: -0.009 | inactive: -0.057 | inactive: 0.135 | inactive: -0.079
22 | HELQ (UniProt Q8TDG4) | inactive: -0.024 | inactive: 0 | inactive: -0.021 | inactive: 0.067 | inactive: 0.125 | inactive: -0.122 | inactive: -0.056 | inactive: -0.04 | inactive: -0.019 | inactive: 0.061
23 | GYG1 (UniProt P46976) | inactive: 0.08 | inactive: 0.124 | inactive: 0.036 | inactive: -0.133 | inactive: -0.163 | inactive: -0.028 | inactive: -0.195 | inactive: 0.051 | active: 0.376 | inactive: 0.15
24 | HDHD2 (UniProt Q9H0R4) | inactive: 0.048 | inactive: -0.097 | inactive: -0.027 | inactive: -0.06 | inactive: -0.007 | inactive: 0.024 | inactive: 0.085 | inactive: -0.03 | inactive: -0.011 | inactive: 0.006
25 | GTF2A1 (UniProt P52655) | inactive: -0.102 | inactive: 0.031 | inactive: 0 | inactive: -0.126 | inactive: -0.069 | inactive: 0.111 | inactive: 0.043 | inactive: 0.006 | inactive: 0.012 | inactive: 0.012
26 | HCFC1 (UniProt P51610) | inactive: 0.02 | inactive: -0.002 | – | inactive: -0.008 | – | inactive: -0.088 | inactive: 0.148 | – | inactive: 0.023 | –
27 | GSK3B isoform 2 (UniProt P49841) | inactive: 0.133 | inactive: -0.034 | inactive: 0.013 | – | inactive: 0.056 | inactive: -0.041 | inactive: 0.022 | inactive: -0.013 | inactive: 0.014 | inactive: -0.121
28 | HDAC5 isoform 3 (UniProt Q9UQL6) | – | inactive: 0.108 | inactive: 0.055 | inactive: -0.408 | – | inactive: 0.066 | inactive: -0.054 | – | inactive: -0.113 | inactive: 0.001
29 | HAUS7 isoform 2 (UniProt Q99871) | – | – | – | – | – | – | – | – | – | inactive: 0.208
30 | H2AFY (UniProt O75367) | inactive: 0.11 | – | inactive: -0.267 | inactive: 0.345 | inactive: -0.199 | inactive: 0.095 | inactive: -0.132 | inactive: 0.058 | inactive: 0.082 | –
31 | HDAC1 (UniProt Q13547) | – | inactive: 0.059 | inactive: -0.019 | inactive: 0.031 | inactive: 0 | inactive: 0.025 | inactive: 0.024 | inactive: 0.141 | inactive: 0.06 | inactive: -0.023
32 | GXYLT1 (UniProt Q4G148) | inactive: 0.547 | – | inactive: -0.023 | inactive: -0.086 | inactive: 0.068 | inactive: 0.022 | inactive: 0.058 | inactive: 0.111 | inactive: -0.079 | inactive: 0.039

Part of the list above, with tabs.
Row	Target	log2 fold change [1]	log2 fold change (filanesib)	log2 fold change (zotarolimus)	log2 fold change (alisertib)	log2 fold change [2]	log2 fold change (gefitinib)	log2 fold change [3]	log2 fold change (lapatinib)	log2 fold change (pictilisib)	log2 fold change (idasanutlin)
31	HDAC1 (UniProt Q13547)	–	inactive: 0.059	inactive: -0.019	inactive: 0.031	inactive: 0	inactive: 0.025	inactive: 0.024	inactive: 0.141	inactive: 0.06	inactive: -0.023
32	GXYLT1 (UniProt Q4G148)	inactive: 0.547	–	inactive: -0.023	inactive: -0.086	inactive: 0.068	inactive: 0.022	inactive: 0.058	inactive: 0.111	inactive: -0.079	inactive: 0.039
